The other results are listed elsewhere or left out.
biological target: OsWRKY34 (Oryza sativa, UniProt Q0JBA9 1-250); assay: protein-binding microarray (RPBM); PBS, 2% BSA, 51.3 ng/ul salmon testes DNA, 50 uM zinc acetate, 200 nM TF, 25 C, 1 h; high values mean tight binding; conditions: protein: recombinant; tags: N-terminal polyhistidine and DsRed monomer fusion (pET32a); label: CyDye5-dUTP incorporated in the synthesized complementary strand; 3' TTTTT single-stranded linker to array surface; dsDNA, one strand shown
Outline: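 The binding signal is fluorescence intensity per array feature (arbitrary units). Readings came from an Axon 4000B scanner after a washed, 2% BSA-blocked, double-stranded custom Agilent array had been incubated for 1 h at 25 °C with 200 nM protein and 50 µM zinc acetate. The protein was a Ni–NTA-purified transcription factor fused N-terminally to polyhistidine and DsRed, expressed in E. coli BL21-CodonPlus.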

Protein sequences, listed by entry. Tags and fused reporters are not part of them.
UniProt Q0JBA9, entry or part of it: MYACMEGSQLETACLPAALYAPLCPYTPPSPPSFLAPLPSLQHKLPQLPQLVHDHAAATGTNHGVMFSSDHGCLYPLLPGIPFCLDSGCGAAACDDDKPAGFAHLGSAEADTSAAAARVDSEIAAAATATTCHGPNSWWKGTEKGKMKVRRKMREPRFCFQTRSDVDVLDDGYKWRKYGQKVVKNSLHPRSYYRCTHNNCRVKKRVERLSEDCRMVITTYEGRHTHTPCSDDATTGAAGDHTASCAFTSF

Sequence	binding signal
CACCACCGCCACAGTCGCGTCGCCGTCCTACCACTACTGCCGGAGTCACCTAGTGCAG	8940 fluorescence intensity (a.u.)
AACCCGCACGCCTCCGTTTCCGTCTCCCTTCTCCCCACCCCGGAGTCACCTAGTGCAG	8510 fluorescence intensity (a.u.)
CCATTTAATTCTACCTATTTTCTTAATAACCGTGTATAACCGGAGTCACCTAGTGCAG	8770 fluorescence intensity (a.u.)
ACACCGCTGACTTTTTAAAACATGTTTTACCGTTCGTCTTCGGAGTCACCTAGTGCAG	13600 fluorescence intensity (a.u.)
TGTTACAGCTTCTTATTTCAATTGATATGTTTTTAGATCACGGAGTCACCTAGTGCAG	10000 fluorescence intensity (a.u.)
GGCCGCAAACTAAATCAGCCCTATACTATGAGGCAAACAACGGAGTCACCTAGTGCAG	12100 fluorescence intensity (a.u.)
AATATGCCAGCTGATTAATTAATCTTTTTTTTGTTTTGCTCGGAGTCACCTAGTGCAG	9520 fluorescence intensity (a.u.)
CAACATCTTCTTTAGTTGCTCACACTTTTTCTTAGAATCACGGAGTCACCTAGTGCAG	8340 fluorescence intensity (a.u.)
CTCGCGCTTAATTTACTGTTTGTTTTTGTCGATTTATGCACGGAGTCACCTAGTGCAG	8890 fluorescence intensity (a.u.)
CTTCTACTAGTAGTATTATAACTGGGTTGTTCATTATTTGCGGAGTCACCTAGTGCAG	8930 fluorescence intensity (a.u.)
TCTTCTCCTAGACCTTCACATCCTTCACACATCTATATAACGGAGTCACCTAGTGCAG	9220 fluorescence intensity (a.u.)
GAGTAGGCTGGTCTGACCGCCGTGTGTTGGCCGGTCAGACCGGAGTCACCTAGTGCAG	10400 fluorescence intensity (a.u.)
ATCTCGCGTTTGTACTAAAGGTTATATATCGTTTTATTTTCGGAGTCACCTAGTGCAG	10200 fluorescence intensity (a.u.)
AGTTGAGGGATGGGTTATACCCGGTTTTGTGGTCAAGGGACGGAGTCACCTAGTGCAG	8330 fluorescence intensity (a.u.)
GAGCGACTTTTTCCCACGAAACACACCATTTAGCAGTTTGCGGAGTCACCTAGTGCAG	8310 fluorescence intensity (a.u.)
ATGTCTACTCTTGTGAGATTTTTTTGGTGTTGGAATACTGCGGAGTCACCTAGTGCAG	8320 fluorescence intensity (a.u.)
TCCGGGAGTATTATAGCATCTGTACTTCTCACCTCCTAATCGGAGTCACCTAGTGCAG	9950 fluorescence intensity (a.u.)
GTTGGGTGCGGTTTCCTTCCACGCTTGGGCTCGAACAACTCGGAGTCACCTAGTGCAG	9050 fluorescence intensity (a.u.)
CACACCATCCCCGTCCCGGATCCGGCGACCACCGATTCCTCGGAGTCACCTAGTGCAG	8850 fluorescence intensity (a.u.)
GCCCACGGGTGGAGACCTTGGCTAGCTGCTTGGGGTGGGCCGGAGTCACCTAGTGCAG	11000 fluorescence intensity (a.u.)
AGTCCAATGACTCCACCCCACCACCGATTGCTTGTCTCCACGGAGTCACCTAGTGCAG	10200 fluorescence intensity (a.u.)
ACTCTTGTCCTCTCTATTTTTTTTCCCAAATTAGTAGCCTCGGAGTCACCTAGTGCAG	8640 fluorescence intensity (a.u.)
TCACAAAAGTATACCCTTTTACACACACTCATTTTTCTTTCGGAGTCACCTAGTGCAG	10700 fluorescence intensity (a.u.)
ATCACTCCACAAACATTGTTTTTCCACGTTTAACTTCTACCGGAGTCACCTAGTGCAG	12800 fluorescence intensity (a.u.)
AGATACTGCTGACCAATATAGATACCCTGATGTCCCATCCCGGAGTCACCTAGTGCAG	8470 fluorescence intensity (a.u.)
GTATGTTTTTGTTTCTCTTCCATTTACCATTAAAATATGGCGGAGTCACCTAGTGCAG	8420 fluorescence intensity (a.u.)
TACAATGCTGGACCCATCAACATCACCAGGGGCGGATCTACGGAGTCACCTAGTGCAG	8100 fluorescence intensity (a.u.)

Rewritten with bars between the fields: entries from further up
Sequence | binding signal
CACCACCGCCACAGTCGCGTCGCCGTCCTACCACTACTGCCGGAGTCACCTAGTGCAG | 8940 fluorescence intensity (a.u.)
GTTGGGTGCGGTTTCCTTCCACGCTTGGGCTCGAACAACTCGGAGTCACCTAGTGCAG | 9050 fluorescence intensity (a.u.)

More results follow.

Sequence	binding signal
ATCATTCCTAAAATATTTCTACCGTTGGCCTCTCTACATGCGGAGTCACCTAGTGCAG	11400 fluorescence intensity (a.u.)
CAGTGAATCTACCACCAGCACCCTCTATCATTAACGTATCCGGAGTCACCTAGTGCAG	8180 fluorescence intensity (a.u.)
ATATTAGTGTCTGAACACCTCATACGACACCCTATATAATCGGAGTCACCTAGTGCAG	9020 fluorescence intensity (a.u.)
ATTGTTTGCTTGGTCTGCTACTTGAGTTCTTAGTTCCTTTCGGAGTCACCTAGTGCAG	12100 fluorescence intensity (a.u.)
TGCTCGTTTCTCAAGTTCTTGCACCAAATTGCACCCACCTCGGAGTCACCTAGTGCAG	9040 fluorescence intensity (a.u.)
GTGCTTATCTTCCACTTCCATGGATGTCAAATGTGCGTCACGGAGTCACCTAGTGCAG	10000 fluorescence intensity (a.u.)
GCGCGACTGCCACCACCTCCACCGGATTCATCTCCGCCTCCGGAGTCACCTAGTGCAG	8380 fluorescence intensity (a.u.)
TTGTTGTTGGTAGTAGTTTTTTGGGCACCAATTTTCCATGCGGAGTCACCTAGTGCAG	9230 fluorescence intensity (a.u.)
CTTTTTTTTCAAACTACTAACTTTCTCTCAACTTCGTAACCGGAGTCACCTAGTGCAG	8870 fluorescence intensity (a.u.)
CTTCCTGCCTGTCCCTGAGTTGTACCCGCTCTATTTTTTTCGGAGTCACCTAGTGCAG	13400 fluorescence intensity (a.u.)
CTGTACGCGACCCCGCGTGACGGCGTGTGGGGTGGGCACGCGGAGTCACCTAGTGCAG	11900 fluorescence intensity (a.u.)
GGTTATATTTATCTTCATGATTGTCGCGCTGCAGTAGAAACGGAGTCACCTAGTGCAG	9080 fluorescence intensity (a.u.)
ATGTGATCATCAGTGTTTGATACTACCTTTTCCATTCCAGCGGAGTCACCTAGTGCAG	8050 fluorescence intensity (a.u.)
CTCCTTGGCTCTTCTCTTATTTTTTTTTTTGCTTAAATTTCGGAGTCACCTAGTGCAG	11600 fluorescence intensity (a.u.)
CAGTTGTTTATTCTTTATGGTGGATTTTGATCAATAGGTTCGGAGTCACCTAGTGCAG	9450 fluorescence intensity (a.u.)
TTGCTATGTACATTTGTGTAGTGTCTGAGTACTGTTATCCCGGAGTCACCTAGTGCAG	8500 fluorescence intensity (a.u.)
CAAATTTCTCTAATGCTTTTGGTTCCCTTTCTGCATGAACCGGAGTCACCTAGTGCAG	8660 fluorescence intensity (a.u.)
TGGTGATTTTGTGTCTGTATCATCAAAATTTGGGTATCTTCGGAGTCACCTAGTGCAG	8680 fluorescence intensity (a.u.)
TGAGTTTATTTTTTATATGGTTGGTTCTTGTAAGTTCCTACGGAGTCACCTAGTGCAG	8550 fluorescence intensity (a.u.)
TTCTCCTAGCTCGATTCCACACATGTGAACGTACGTACGTCGGAGTCACCTAGTGCAG	11000 fluorescence intensity (a.u.)
CTACCCGCCTTCTTCTACTTCTACCACGCGCGTAGTTTCCCGGAGTCACCTAGTGCAG	8290 fluorescence intensity (a.u.)
AGTGAACTACTTAGCGATCATCACTGCTATTTCACATGTACGGAGTCACCTAGTGCAG	9420 fluorescence intensity (a.u.)
TCCTCTTTCATTTTTCGTGTGCACGTTTTTCAAACGGCTACGGAGTCACCTAGTGCAG	9040 fluorescence intensity (a.u.)
ATGCATCGCCAACTCCACTGCTCCATGTTGCTTCTGCGCCCGGAGTCACCTAGTGCAG	8890 fluorescence intensity (a.u.)
TTGATGGGTATTTGGGCCTTGGGCTGTTGTGTGTGTGTTTCGGAGTCACCTAGTGCAG	12800 fluorescence intensity (a.u.)
AACAACACACCTCCTCTGCACTTGCTCCTTCTCTTCTTCTCGGAGTCACCTAGTGCAG	9970 fluorescence intensity (a.u.)
TTTGTTTGAACTTTTATTTTTCTTTTAAATCTTGCTTCTACGGAGTCACCTAGTGCAG	8850 fluorescence intensity (a.u.)

From publication PMC7819943, “Rice protein-binding microarrays: a tool to detect cis-acting elements near promoter regions in rice”
